One experiment deals with HCC4006. As to the kind of experiment: 5 day Cell Titer Glo assay, parental cells. It is filed as cell-based. To be noted: Homo sapiens, HCC4006, 120 h, Table 3, CDK inhibitors, 5 day Cell Titer Glow; drugs listed twice; read-out: HCC4006 GIC50. The protocol: (§1) Proteomic profiling of resistant cells was performed by reverse phase protein array (RPPA) and Western blotting for markers of epithelial to mesenchymal transition (EMT). Cell Titer glow assay in a high-throughput 384 well plate system was utilized for drug screening. Long-term effect of SAC and CDK inhibitors was evaluated by […] clonogenic assay.

The subject of a further experiment is HCC4006 ER. As to the kind of experiment: 5 day Cell Titer Glo assay, erlotinib resistant cells. In kind it is cell-based. As to conditions: Homo sapiens, HCC4006, 120 h, Table 3, CDK inhibitors, 5 day Cell Titer Glow; drugs listed twice; read-out: HCC4006 ER GIC50. As for the experimental part:
as §1

Each structure is given as a SMILES string. pIC50: −log10 of the molar value.

With `CCc1cnn2c(NCc3ccc[n+]([O-])c3)cc(N3CCCC[C@H]3CCO)nc12` [Dinaciclib], the pIC50 with HCC4006 and in the experiment on HCC4006 ER was 8.00 throughout.

Source of the values: US20210015819A1, “METHODS FOR TREATMENT OF CANCERS WITH EGFR ACTIVATING MUTATIONS” (Board of Regents, The University of Texas System, priority 2018, published 2021).
